# US8632755B2, “Consumer noticeable improvement in wetness protection” (The Procter & Gamble Company, priority 2005, dated 2014)
# Experiment: Odor detection threshold (ODT) of HIA perfume ingredients, determined using a gas chromatograph
# Conditions: HIA perfume ingredient of the high impact accord of Example 1
row,SMILES,ODT. (odor detection threshold)
1,CCCCCCCCC/C=C/C=O [Mandarin Aldehyde],≦50 ppb
2,CC(=O)/C=C/C1=C(C)CCCC1(C)C [Ionone Beta],≦50 ppb
3,CCCCCCCC1CCC(=O)O1 (stereo not shown) [Undecalactone],≧50 ppb
4,C=C(C)[C@H]1CC=C(C)CC1 [d-limonene],≧50 ppb
5,CC(C)=CCCC(C)CCCC(C)C=O (stereo not shown) [Adoxal],≧50 ppb
6,CC(C)=CCCC(C)C=O (stereo not shown) [Melonal],≦50 ppb
7,CCCCCCC(C=O)=Cc1ccccc1 [Hexyl Cinnamic Aldehyde],≧50 ppb
8,CCOC(=O)C(C)CC (stereo not shown) [ethyl-2-methyl butyrate],≦50 ppb
9,CCC/C=C/C=O [Trans-2 Hexenal],≦50 ppb
10,CCC=CCCC=CC=O [2-6-nonadienal],≦50 ppb
11,C=CCOC(=O)CCCCCC [Allyl Heptanoate],≧50 ppb
12,CCCCCCCCCC(C)C=O (stereo not shown) [Methyl Nonyl Acetaldehyde],≦50 ppb
13,CC/C=C\CCOC(C)=O [Cis 3 Hexenyl Acetate],≧50 ppb
14,CC(=O)CCc1ccc(O)cc1 [Para Hydroxy Phenyl Butanone],≦50 ppb
15,CC/C=C\CCO [Beta Gamma Hexenol],≧50 ppb
16,C/C=C\C(=O)C1C(C)=CCCC1(C)C (stereo not drawn) [Damarose Alpha],≦50 ppb
17,CCCCCCC=CC(=O)OC [methyl-2-nonenoate],≦50 ppb
18,CC1(C)C2CC=C(CCC=O)C1C2 (stereo not shown) [Pino Acetaldehyde],≦50 ppb
19,CCCCCCCCCC=O [Decyl Aldehyde],≦50 ppb
20,CC(=O)OC1CCCCC1C(C)(C)C (stereo not shown) [Verdox],≧50 ppb
21,CC1=CCC(C(C)CC2CCCC2=O)CC1 (stereo not shown) [Nectaryl],≧50 ppb
22,C=CCCC(=O)C1=CCCC(C)(C)C1 [Neobutenone],≦50 ppb
